Laboratory results: patent publication US20130202724A1, “SOYBEAN EXTRACTS FOR THE TREATMENT OF HEPATIC DISORDERS” (Hadasit Medical Research Services and Development Ltd., priority 2010, published 2013)
At least one compound was matched to its structure with a doubt left.

Tested on: ConA-challenged C57BL-6 mice
Assay: ConA-induced hepatotoxicity with soybean-derived extracts (Example 6)
Type: in vivo
Conditions: combinations 1:1, especially 0.3 and 3 μg per mouse
Procedure: Either two (Example 1 (A)) or three (Example 1 (B)) groups of mice (10 mice per group) were studied. ConA was dissolved in 50 mM Tris (pH 7), 150 mM NaCl, and 4 mM CaCl2. To induce autoimmune hepatitis, mice were injected i.v. with 20 mg/kg ConA. Control mice were injected with PBS. A specified dosage of […] or vehicle was administered to the mice orally […] before (Example 1 (A)) or 30 min after (Example 1 (B)) they had received an injection of ConA. The mice were sacrificed 16 h (Example 1 (A)) or 17 h (Example 1 (B)) later. For Example 4 (ConA challenge in different […] extracts), six groups of 4-5 11-12 weeks old male C57BL/6 mice were treated per os for three days with extracts as show in Table 4. The mice were injected i.v. (tail vein) 500 μg of ConA, (20 mg/kg body weight) and sacrificed 14 h later. After sacrifice measurements of serum IFN-γ was carried out using ELISA. […] Serum ALT and AST activities were determined and serum levels of IFN-γ and TNF-α were measured. […] Serum levels of IFN-γ, TNF-α, and IL-6 were determined by “sandwich” ELISA using commercial kits according to the manufacturer's instructions. […] Serum ALT and AST activities were determined and serum levels of IFN-γ and TNF-α were measured.

C[C@@H]1C[C@H]2[C@@H]3CCC4=CC(=O)C=C[C@]4(C)[C@@]3(F)[C@@H](O)C[C@]2(C)[C@@]1(O)C(=O)CO [dexamethasone]
hepatic protection (liver enzymes and serum IFN-γ and TNF-α), summary: significant decrease
